Record: PubChem BioAssay AID1259254 (NCATS, 2017)
Shown is one part, drawn at random, of about 59,000 reagents. About 1,550 of them (2.6%) were called active. 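G2 share is only a proxy for re-replication; each gene was hit by three separate siRNAs, and active genes were retested.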 The numbers tell different reagents against one gene apart. Further read-outs or replicates are left out here. Reagent sequences are not shown. Not stated in the record: the amount of reagent.

Test: 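Finding genes that stop cells copying their DNA twice in one cycle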 (primary screen)
Cells: human HCT116 colorectal cancer cells
Reagents: single siRNA against human genes
Timing: 3 days
Read-out: 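Nuclei stained with Hoechst and imaged; cell-cycle phase assigned by DNA content; G2 share scaled per plate, non-targeting siRNA 0%, GMNN siRNA 100%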
Direction: G2 robust z-score: higher = more G2 cells, more excess DNA replication
Hit rule: 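Active siRNAs have a G2 robust z of 5 or more median absolute deviations over the median, which in these data means about 38% or higher of GMNN control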

gene,siRNA no.,G2 robust z-score,call
DCAF16 (GeneID 54876),1,1.4,inactive
DCAF16 (GeneID 54876),2,-0.357,inactive
DCAF16 (GeneID 54876),3,-1.05,inactive
YPEL3 (GeneID 83719),1,2.99,inactive
YPEL3 (GeneID 83719),2,1.68,inactive
YPEL3 (GeneID 83719),3,-0.781,inactive
BTBD10 (GeneID 84280),1,0.624,inactive
BTBD10 (GeneID 84280),2,-1.03,inactive
BTBD10 (GeneID 84280),3,-0.347,inactive
KRTAP4-1 (GeneID 85285),1,0.167,inactive
KRTAP4-1 (GeneID 85285),2,6.1,active
KRTAP4-1 (GeneID 85285),3,0.445,inactive
SMC5 (GeneID 23137),1,-0.76,inactive
SMC5 (GeneID 23137),2,0.486,inactive
SMC5 (GeneID 23137),3,-1.03,inactive
AS3MT (GeneID 57412),1,-0.439,inactive
AS3MT (GeneID 57412),2,0.542,inactive
AS3MT (GeneID 57412),3,-1.13,inactive
RNF186 (GeneID 54546),1,0.0737,inactive
RNF186 (GeneID 54546),2,-0.139,inactive
RNF186 (GeneID 54546),3,1.47,inactive
PRORSD1P (GeneID 344405),1,0.2,inactive
PRORSD1P (GeneID 344405),2,-0.705,inactive
PRORSD1P (GeneID 344405),3,-0.41,inactive
SSR4P1 (GeneID 728039),1,0.333,inactive
SSR4P1 (GeneID 728039),2,1.29,inactive
SSR4P1 (GeneID 728039),3,-0.149,inactive
SSR4P1 (GeneID 728039),4,-1.28,inactive
SSR4P1 (GeneID 728039),5,-0.326,inactive
SSR4P1 (GeneID 728039),6,1.27,inactive
GPCPD1 (GeneID 56261),1,0.814,inactive
GPCPD1 (GeneID 56261),2,-0.539,inactive
GPCPD1 (GeneID 56261),3,5.49,active
TOMM70 (GeneID 9868),1,-0.392,inactive
TOMM70 (GeneID 9868),2,0.388,inactive
TOMM70 (GeneID 9868),3,-1.01,inactive
PLEKHD1 (GeneID 400224),1,-0.815,inactive
PLEKHD1 (GeneID 400224),2,-0.808,inactive
PLEKHD1 (GeneID 400224),3,-1.06,inactive
RIPOR1 (GeneID 79567),1,0.152,inactive
RIPOR1 (GeneID 79567),2,0.00788,inactive
RIPOR1 (GeneID 79567),3,0.333,inactive
TMED1 (GeneID 11018),1,-0.543,inactive
TMED1 (GeneID 11018),2,-0.997,inactive
TMED1 (GeneID 11018),3,-0.504,inactive
CA5B (GeneID 11238),1,-0.45,inactive
CA5B (GeneID 11238),2,-0.784,inactive
CA5B (GeneID 11238),3,-0.053,inactive
EPC1 (GeneID 80314),1,0.351,inactive
EPC1 (GeneID 80314),2,-0.827,inactive
EPC1 (GeneID 80314),3,-0.38,inactive
ECI1 (GeneID 1632),1,0.18,inactive
ECI1 (GeneID 1632),2,2.29,inactive
ECI1 (GeneID 1632),3,-0.317,inactive
CYP4F8 (GeneID 11283),1,-0.133,inactive
CYP4F8 (GeneID 11283),2,-1.07,inactive
CYP4F8 (GeneID 11283),3,-0.635,inactive
H3C8 (GeneID 8355),1,0.67,inactive
H3C8 (GeneID 8355),2,-0.566,inactive
H3C8 (GeneID 8355),3,-0.287,inactive
CYTH2 (GeneID 9266),1,-0.481,inactive
CYTH2 (GeneID 9266),2,-0.787,inactive
CYTH2 (GeneID 9266),3,-0.961,inactive
LCE2A (GeneID 353139),1,-1.13,inactive
LCE2A (GeneID 353139),2,0.266,inactive
LCE2A (GeneID 353139),3,-0.608,inactive
PAGR1 (GeneID 79447),1,-1.1,inactive
PAGR1 (GeneID 79447),2,0.703,inactive
PAGR1 (GeneID 79447),3,0.0944,inactive

5 entries from above, arranged by “G2 robust z-score”, lowest first:
gene,siRNA no.,G2 robust z-score,call
GPCPD1 (GeneID 56261),2,-0.539,inactive
TOMM70 (GeneID 9868),1,-0.392,inactive
TOMM70 (GeneID 9868),2,0.388,inactive
GPCPD1 (GeneID 56261),1,0.814,inactive
GPCPD1 (GeneID 56261),3,5.49,active
